Laboratory results: PubChem BioAssay AID260 (DTP/NCI, 2004)
The list does not hold the whole screen: its compounds were picked by chemical class. Not every dose and run of a compound is shown. T/C: endpoint of the treated group in % of that of the vehicle group. For survival time, the PubChem record calls one and a half times the control and up active, and a quarter to a half above the control has no call in these data; cut-offs in other NCI protocols can differ. Schedule codes are those of the source, read here as Q, the interval in days (D) or hours (H), X, the number of doses. Some T/C values are marked as having no survivor count here; that says nothing about deaths at the dose.

Tested on: CD2F1 mice, intracerebral L1210 leukemia, survival T/C
Experiment: NCI In Vivo Anticancer Drug Screen. Data for tumor model L1210 Leukemia (intracerebral) in CD2F1 (CDF1) mice
Conditions: T/C endpoint: median survival time, schedule: Q01DX005 (ip), vehicle: suspension in saline, higher T/C = longer survival
Procedure: The antitumor activity of compounds was measured in mice bearing transplantable tumors. Survival or tumor size were measured and the results are expressed as the measurement made in the treated group (T) divided by the measurement made in the vehicle treated control group (C). The tumor model used in this assay is L1210 Leukemia (intracerebral) in CD2F1 (CDF1) mice

## CC(=O)OCC12CCC(C)=CC1OC1C(O)C(OC(C)=O)C2(C)C12CO2 (stereo not drawn)
dose: 2.0 mg/kg/injection
  T/C: 114 % of control [survivor count not shown]
dose: 4.0 mg/kg/injection
  T/C: 126 % of control [survivor count not shown]
dose: 8.0 mg/kg/injection
  T/C: 119 % of control [survivor count not shown]
